# Results from PubChem BioAssay AID588499 (NMMLSC, 2011).
# In all, about 360,000 compounds went through this assay and about 610 (0.17%) were called active. This list was built around the results that the source calls inconclusive (neither active nor inactive); the mix of calls is not that of the screen. Rule as the data show it: active = inhibition above about 30%; inconclusive = no clear call, values can overlap the other calls; inactive = below that.
# Tested on: Botulinum neurotoxin type A light chain protease (Clostridium botulinum A str. ATCC 3502)
# Experiment: blockers of BoNT/A LC substrate cleavage – biochemical, flow cytometry, MLPCN library, primary screen (AID 588499); also: plate controls were buffer without enzyme for full effect and enzyme alone for no effect
# Conditions: multiplex microsphere protease substrate cleavage, at 10 µM, hits give high values
row,Compound,inhibition
1,Cc1ccc(C(=O)CSc2nnc(-c3ccccc3)n2-c2ccccc2)o1,inconclusive: 3.1%
2,Cc1cc(C)cc(OCc2nnc(SCC(=O)OC3CCCCC3)o2)c1,inconclusive: 6.5%
3,CC(=O)Nc1ccc(Nc2ncnc3c2cnn3-c2ccccc2)cc1,inconclusive: -1.5%
4,CCCCN1C(=O)/C(=C2\SC(N3CCOCC3)=NC2=O)c2ccccc21,inconclusive: 4.7%
5,COc1ccc(N(CC(=O)Nc2cccc(C)c2C)S(=O)(=O)c2c(C)n[nH]c2C)cc1,inconclusive: 2.4%
6,CCN(CC)c1ccc(NC(=O)COc2ccc(C)cc2)cc1,inconclusive: 0%
7,C=C(C)CSc1nnc([C@@H](N)Cc2c[nH]c3ccccc23)o1,inconclusive: 3.4%
8,CC/C(=N\Nc1ccccc1)c1c(O)n(-c2ccccc2)c(=O)[nH]c1=O,inconclusive: 17.2%
9,Cc1ccccc1N1CCN(Cc2ccc3c(c2)OCO3)CC1,inconclusive: -4.2%
10,Cc1cc(C)c(C)c(OCCN2CCOCC2)c1,inconclusive: 3.8%
11,CC(=O)N(CCc1cccc(C)c1)Cc1cc2ccc(C)cc2[nH]c1=O,inconclusive: -3.1%
12,COc1cc(C2CC(=O)Oc3cc(C)c(Br)c(C)c32)cc(OC)c1OC (stereo not drawn),inactive: -0.2%
13,O=C(Nc1cccc([N+](=O)[O-])c1)NN1CCCCCC1,inactive: -0.3%
14,CCCCN(C)Cc1cc(=O)oc2cc3c(cc12)CCCC3,inconclusive: -36.5%
15,O=C(NCCC(=O)N1CCc2ccccc21)c1ccco1,inactive: 0.2%
16,Cc1ccc2c(CN3CCCc4ccccc43)cc(=O)oc2c1C,inconclusive: 5.8%
17,COc1ccc2nc3ccccc3nc2c1NC(=O)c1ccc(Cl)cc1Cl,inactive: -3.8%
18,CCn1c(=O)n(CC)c2cc(N3CCCC3)c(NC(=O)c3cccc(C)c3)cc21,inconclusive: 1.2%
19,CCOc1ccc(C(C)=O)cc1COc1cccnc1[N+](=O)[O-],inactive: -0.2%
20,CC(C)(C)C(=O)O/N=C(\N)COc1cccc(Cl)c1,inconclusive: -7.1%

row,Compound,inhibition
1,O=C(O/N=C1/CCCc2occc21)c1ccc(Cl)cc1Cl,inconclusive: 1.8%
2,O=C(NCCCCNC(=O)c1ccc(Br)s1)c1ccc(Br)s1,inconclusive: 0.6%
3,O=C(/C=C/c1ccccc1Cl)NCCc1ccccc1,inconclusive: -1.4%
4,CCC(CC)NC(=O)COC(=O)c1ccc(OCC(=O)Nc2ccccc2OC)c(OC)c1,inconclusive: 3.5%
5,C=C(C)C1CC=C(C)/C(=N/NC(=O)CNc2ccc(OCC)cc2)C1 (stereo not drawn),inconclusive: 4.5%
6,COc1ccc(Nc2oc(-c3ccc(OC)cc3)nc2C#N)cc1,inconclusive: -11.1%
7,COc1cc(NC(=O)COC(=O)C2CC(O)CN2S(=O)(=O)c2ccc(Cl)cc2)c(C)cc1[N+](=O)[O-] (stereo not drawn),inactive: 0.3%
8,Cc1c([N+](=O)[O-])cc(C(=O)Oc2ccc(Br)cc2C(=S)N2CCCCC2)cc1[N+](=O)[O-],inconclusive: 1.9%
9,O=c1[nH]cnc2c1cnn2Cc1ccccc1,inconclusive: 1.2%
10,Cc1ccc(NC(=S)Nc2cccc3ccccc23)cc1,inactive: -2.4%
11,C=CCNc1nc(N2CCOCC2)nc(N2CCOCC2)n1,inactive: -0.2%
12,CCCc1nnc(NC(=O)c2cccc(OC)c2)s1,inconclusive: 5.6%
13,Oc1ccc2oc3c(c2c1/C=N/n1cnnc1)CCCC3,inconclusive: -6.9%
14,COc1cc(O)c(C(CCN2CCCC2)c2ccc3c(c2)OCO3)c(OC)c1 (stereo not drawn),inactive: 0.1%
15,COc1ccc(-c2cc(-c3cc(F)ccc3O)[nH]n2)cc1OC,inconclusive: 4.7%
16,Cc1ccc(F)cc1C(=O)N1CCCC(c2cc(C(=O)NCc3ccccc3)no2)C1 (stereo not drawn),inactive: -0.1%
17,COc1ccc(N=c2oc3c(OC)cccc3cc2C(=O)NCc2ccco2)cc1OC,inconclusive: 4.4%
18,COc1ccc(NC(=O)c2cccnc2)c(OC)c1,inconclusive: 6.7%
19,CCCC[C@@H]1Cc2[nH][nH]c(=O)c2[C@H](c2cccc3ccccc23)O1,inactive: 0.2%
20,Cc1ccc(-c2cc(C(=O)Nc3cnn(C45CC6CC(CC(C6)C4)C5)c3)no2)cc1,inconclusive: 2.4%

# Gathered by group, the entries above containing an aryl thioether with sulfur outside any ring
row,Compound,inhibition
1,Cc1ccc(C(=O)CSc2nnc(-c3ccccc3)n2-c2ccccc2)o1,inconclusive: 3.1%
2,Cc1cc(C)cc(OCc2nnc(SCC(=O)OC3CCCCC3)o2)c1,inconclusive: 6.5%
7,C=C(C)CSc1nnc([C@@H](N)Cc2c[nH]c3ccccc23)o1,inconclusive: 3.4%

# Remaining list, next part

row,Compound,inhibition
1,COC(=O)C1=C(O)C2(C(=O)O)CC(C(=O)OC)=C(O)C(C(=O)O)(C1)C2,inconclusive: 1.2%
2,CCOC(=O)C1CCN(C(=O)c2cc(S(=O)(=O)N3CCc4ccccc43)ccc2OC)CC1,inconclusive: -0.7%
3,CCCNC(=O)Cn1cnc2sc(C(=O)Nc3cc(OC)c(OC)c(OC)c3)c(C)c2c1=O,inconclusive: 0.5%
4,COCCSc1ccccc1C(=O)N1CCOCC1,inconclusive: 4.4%
5,CC1CCCCN1S(=O)(=O)c1ccc(NC(=O)CSc2nnnn2C)cc1 (stereo not drawn),inconclusive: 0.7%
6,CCOC(=O)COc1ccc(S(=O)(=O)Nc2ccc(C)cc2)cc1,inconclusive: -0.5%
7,COC(=O)c1c(NC(=O)COC(=O)CNC(=O)c2cccc(OC(F)F)c2)sc(C)c1C,inactive: 0%
8,Cc1nc(CSc2n[nH]c(=O)n2-c2ccccc2)cs1,inconclusive: -5.4%
9,COc1ccccc1N1CCN(C(=O)COc2cc(C)cc3oc(=O)cc(C)c23)CC1,inactive: -2.9%
10,Cc1ccc2c(c1)/C(=N/OS(=O)(=O)c1ccccc1)CCS2,inconclusive: -1.6%
11,CC(C)Sc1nc2ccccc2n1CC(=O)NCc1ccc2c(c1)OCO2,inconclusive: 1.2%
12,COc1ccc2[nH]c3c(=O)n4c(nc3c2c1)SCC4,inactive: -0.6%
13,O=C(NN=Cc1ccc(F)cc1)C1CC1,inactive: 0.1%
14,CCOC(=O)c1cc2c(=O)n3ccccc3nc2n(CC(C)C)c1=NC(=O)c1c(-c2c(F)cccc2Cl)noc1C,active: 60.3%
15,O=C(O)c1cncc(C#CCC2CCCCC2)c1,inconclusive: 17%
16,CC(C)S(=O)(=O)c1cnc(-c2cccnc2)nc1N,inconclusive: -35.5%
17,CCOC(=O)c1ccc(NC(=S)NNC(C)(C)C)cc1,inconclusive: -19.9%
18,COc1ccc(N2CCN(C(=O)COC(=O)CNC(=O)c3cccc(OC(F)F)c3)CC2)cc1,inconclusive: -2.8%

# Rewritten bar-delimited: entries from further up
row | Compound | inhibition
7 | COC(=O)c1c(NC(=O)COC(=O)CNC(=O)c2cccc(OC(F)F)c2)sc(C)c1C | inactive: 0%
8 | Cc1nc(CSc2n[nH]c(=O)n2-c2ccccc2)cs1 | inconclusive: -5.4%
